Source: patent publication US4575560A, “Insecticidal diaminoguanidine hydrazone compounds” (American Cyanamid Company, priority 1985, dated 1986)
Values joined by “and” are separate entries in the source; they are usually repeats but may differ in a detail not shown here. Identical values can stand only once. The name of at least one read-out is uncertain.

Columns and labels:
[1] = system: Southern Armyworm; test: Southern armyworm test, third-instar larvae on treated Sieva lima bean leaves; format: in vivo, Spodoptera eridania (Cramer); details: 100 ppm
Method: Test formulations and procedures used for evaluation are as follows:
A. 100 mg of the test material is weighed, placed in a funnel over a 113 g narrow-mouth bottle, rinsed into the bottle with a 35 mL scoop of acetone, followed by a 35 mL scoop of water and another 35 mL scoop of acetone to yield 1000 ppm in 65% acetone. If the material is not soluble, it is broken up with a glass rod and used as a suspension.
B. This stock solution ("A") is used to make 300 ppm solutions or suspensions by pipetting 30 mL of "A" into a bottle containing 70 mL of 50% acetone to yield 300 ppm. Further dilutions in 50% acetone are made as required.
C. Tests requiring 10 ppm acetone solutions: 1 mL of "A" is pipetted into 99 mL of acetone to yield 10 ppm. Additional dilutions are made using 50% acetone as required.
Southern Armyworm--Spodoptera eridania (Cramer)
A Sieva lima bean plant with just the primary leaves expanded to 1.91 cm is dipped for three seconds with agitation in the "A" solution of 1000 ppm and set in the hood to dry. Following this, one leaf is placed in a 9 cm petri dish which has a moist filter paper in the bottom and 10 third-instar armyworm larvae about 1 cm long. This dish is covered and held at 80° F., and 50% r.h. After two days, mortality counts and estimates of the amount of feeding are made. […]

[2] = system: Tobacco Budworm 3rd Instar; test: Tobacco budworm secondary test, third-instar larvae on treated cotton cotyledons; format: in vivo, Heliothis virescens (Fabricus); details: 1000 ppm

Structure (SMILES) | Mortality Rating Southern Armyworm [1] | Mortality Rating Tobacco Budworm 3rd Instar [2]
N=C(NN=Cc1ccc(Br)cc1)NN=Cc1ccc(C(F)(F)F)cc1 [CF3 / Br / S] | 8 (86-99%) and 9 (100%) | –
CC(C)OC(=O)N(N=Cc1ccc(OC(F)(F)F)cc1)C(=N)NN=Cc1ccc(OC(F)(F)F)cc1 [CF3 O / CF3 O / -i-C3 H7] | – | 5 (56-65%) and 9 (100%)
CC1(C)Oc2ccc(C=NNC(=N)NN=Cc3ccc4c(c3)OC(C)(C)O4)cc2O1 [drawing 45 / S] | 8 (86-99%) and 9 (100%) | –
